Laboratory results as given in article PMC3022035.

Target: GST-p38 fusion protein
Assay: pull-down; hTCEpi cell lysates (untreated or TNF-α 10 ng/ml) incubated at 4°C for 1 h with GST-p38 fusion protein, then glutathione-agarose at 4°C overnight; egg lysis buffer (50 mM Tris pH 7.5, 0.1% NP40, 120 mM NaCl); Western blot; only the target purified

- binding: binds
B1: IκB kinase β (IKKβ), endogenous in hTCEpi cells (enzyme, UniProt O14920 1-756)
chain: MSWSPSLTTQTCGAWEMKERLGTGGFGNVIRWHNQETGEQIAIKQCRQELSPRNRERWCLEIQIMRRLTHPNVVAARDVPEGMQNLAPNDLPLLAMEYCQGGDLRKYLNQFENCCGLREGAILTLLSDIASALRYLHENRIIHRDLKPENIVLQQGEQRLIHKIIDLGYAKELDQGSLCTSFVGTLQYLAPELLEQQKYTVTVDYWSFGTLAFECITGFRPFLPNWQPVQWHSKVRQKSEVDIVVSEDLNGTVKFSSSLPYPNNLNSVLAERLEKWLQLMLMWHPRQRGTDPTYGPNGCFKALDDILNLKLVHILNMVTGTIHTYPVTEDESLQSLKARIQQDTGIPEEDQELLQEAGLALIPDKPATQCISDGKLNEGHTLDMDLVFLFDNSKITYETQISPRPQPESVSCILQEPKRNLAFFQLRKVWGQVWHSIQTLKEDCNRLQQGQRAAMMNLLRNNSCLSKMKNSMASMSQQLKAKLDFFKTSIQIDLEKYSEQTEFGITSDKLLLAWREMEQAVELCGRENEVKLLVERMMALQTDIVDLQRSPMGRKQGGTLDDLEEQARELYRRLREKPRDQRTEGDSQEMVRLLLQAIQSFEKKVRVIYTQLSKTVVCKQKALELLPKVEEVVSLMNEDEKTVVRLQEKRQKELWNLLKIACSKVRGPVSGSPDSMNASRLSQPGQLMSQPSTASNSLPEPAKKSEELVAEAHNLCTLLENAIQDTVREQDQSFTALDWSWLQTEEEEHSCLEQAS

Results are given in words; binding and its absence hold for the method and conditions named. Binding seen in cells or lysates may run through a third protein. Binding can be weak; no strength is given.
